For 39 sequences, binding signal results are on record in article PMC7862700.

Sequences of proteins named here, by UniProt entry; tags and fusion partners are left off. A change or cut given only in a name is not applied to a line headed by its entry.
UniProt Q01892: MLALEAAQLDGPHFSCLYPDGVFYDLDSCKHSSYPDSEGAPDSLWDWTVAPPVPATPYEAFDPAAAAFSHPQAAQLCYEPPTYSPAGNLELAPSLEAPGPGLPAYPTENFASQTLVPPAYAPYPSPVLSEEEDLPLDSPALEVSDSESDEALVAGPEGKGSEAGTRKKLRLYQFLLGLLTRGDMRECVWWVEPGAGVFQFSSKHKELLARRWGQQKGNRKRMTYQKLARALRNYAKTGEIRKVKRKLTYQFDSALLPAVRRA

Only a part is listed here, and it is no random draw. At the low end of the ranking the order means little.

The target in the assay is SPIB (UniProt Q01892). Kind of assay: DAPPL (digital affinity profiling via proximity ligation, sequencing). Conditions: 10 mM Tris-HCl pH 7.5, 50 mM NaCl, 1 mM DTT, 4% glycerol, room temperature, 30 min; GST-TFs on glutathione beads, 16-mer random dsDNA library, 0.1% …; high values mean tight binding; double strand, one strand shown; scale: fold enrichment (6-mer frequency, TF over GST control).
In turn, CTAATT came in with a binding signal of 1.37.
For TTAGCG the value was 1.13.
For ACCGTC the value was 1.09.
For TGACCT the value was 1.56; for CGCCTC, 1.51; for TACCTC, 1.21.
Turning to CTAAGA, the binding signal was 1.24.
GCCCCT gave a binding signal of 1.21.
Sequence TGGCCT returned a binding signal of 1.48.
For TTGTCC the value was 1.34.
For TGTAAT the value was 1.25; for TCTCCG, 1.52.
For CCGGCA the value was 1.53; for GCTACC, 1.28; for TGTAAA, 1.2.
In turn, ATTGCT registered a binding signal of 1.3.
For TAACCC the value was 1.21; for CAAATA, 1.19; for CCTTTC, 1.7.
For CTGGAC the value was 1.05.
For CGGCTT the value was 1.18; for CCTGCA, 1.24; for TTATAC, 1.43.
ATGATT showed a binding signal of 1.22.
For the sequence TTGAAC, the binding signal was 1.12.
Sequence TTTATA showed a binding signal of 1.33.
For TTGTAC the value was 1.44.
On to CACACT, for which the binding signal turned out to be 1.14.
For GAACCA the value was 0.985; for CCGCAC, 1.41.
For CTACTC the value was 1.59; for ATCATT, 0.97; for GAATTT, 1.28.
For GGAAAC the value was 1.39; for TGTAGC, 1.03.
CTAATC yielded a binding signal of 1.45.
For CAAGGT the value was 0.926; for AAAAGC, 1.23; for CGCCCT, 1.36.
